Measurements reported in PubChem BioAssay AID686938 (Drosophila RNAi Screening Center, 2013)
The deposit covers about 23,000 reagents; this is a random part of those with a known target gene and a result. In the full data, 75 (0.33%) got an active call. 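Raw plate signals without normalisation; calls rest on plate z-scores that were not deposited; ratio present for only 364 wells.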 Names joined by + are all predicted targets of the reagent. Not given: the dose of the treatment.

- Screen: 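Fly genes required for calcium entry once internal stores are emptied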 (primary screen)
- Cells: Drosophila S2R+ cells
- Reagent: long dsRNA against Drosophila genes, about 0.25 µg dsRNA per well, roughly 10,000 cells
- Timing: 5 days of knock-down before the calcium assay
- Treatment: thapsigargin (SERCA pump blocker) to empty calcium stores; entry signal taken 4 min after adding it
- Detection: 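Per-well fluo-4 fluorescence in two replicates, unnormalised, measured in resting cells and 4 min after store depletion by the SERCA blocker thapsigargin; ratio of the two present in few wells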
- Direction: calcium entry signal: higher = stronger calcium signal after store depletion; entry to resting ratio: higher = more calcium entry relative to resting level; resting calcium signal: higher = higher resting calcium signal
- Rule for the call: 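Hit if the duplicate-averaged plate z-score for entry over resting signal is under −3; wells with weak total dye signal (Fmax z < −2) or more than 5 off-targets removed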
- Calls: active = strongly reduced calcium entry; inactive = no strong reduction

| Gene | dsRNA | calcium entry signal, replicate 1 (fluorescence units) | calcium entry signal, replicate 2 (fluorescence units) | entry to resting ratio | resting calcium signal, replicate 1 (fluorescence units) | resting calcium signal, replicate 2 (fluorescence units) | outcome |
| --- | --- | --- | --- | --- | --- | --- | --- |
| Blimp-1 | DRSC10496 | 3.27e7 | 4.57e7 | – | 1.61e7 | 2.11e7 | inactive |
| Pgam5 | DRSC18551 | 2.95e7 | 3.20e7 | – | 1.31e7 | 1.59e7 | inactive |
| Dh44-R1 | DRSC07172 | 3.78e7 | 4.21e7 | – | 1.60e7 | 1.91e7 | inactive |
| MESK2 + CG10494 | DRSC04259 | 3.68e7 | 4.85e7 | – | 1.98e7 | 2.03e7 | inactive |
| sncRNA:430e + His2A:CG33859 + His2A:CG33817 + 37 more | DRSC21264 | 2.49e7 | 1.45e7 | – | 1.66e7 | 9.14e6 | inactive |
| Rab2 | DRSC05017 | 4.40e7 | – | – | 2.18e7 | – | inactive |
| Mad1 | DRSC07561 | 3.85e7 | 2.66e7 | – | 1.52e7 | 1.25e7 | inactive |
| aqrs | DRSC14724 | 4.04e7 | 5.84e7 | – | 2.10e7 | 2.43e7 | inactive |
| Acp36DE | DRSC01860 | 5.04e7 | 3.56e7 | – | 2.18e7 | 1.74e7 | inactive |
| ARY (retired record) | DRSC20867 | 3.65e7 | 3.76e7 | – | 1.73e7 | 1.85e7 | inactive |
| CG7044 | DRSC16180 | 4.67e7 | 4.21e7 | – | 4.96e7 | 1.85e7 | inactive |
| Dscam1 | DRSC05047 | 2.30e7 | 4.43e7 | – | 1.18e7 | 1.96e7 | inactive |
| Dscam1 | DRSC05048 | 2.84e7 | 4.23e7 | – | 1.33e7 | 1.79e7 | inactive |
| Dscam1 | DRSC07407 | 3.53e7 | 4.40e7 | – | 1.71e7 | 1.88e7 | inactive |
| Dscam1 | DRSC21562 | 3.98e7 | 3.67e7 | – | 2.41e7 | 1.77e7 | inactive |
| Dscam1 | DRSC22383 | 4.05e7 | 3.24e7 | – | 2.40e7 | 1.65e7 | inactive |
| CG13084 | DRSC02188 | 5.63e7 | 4.60e7 | – | 2.63e7 | 2.12e7 | inactive |
| lncRNA:CR9162 | DRSC03151 | 4.62e7 | – | – | 2.88e7 | – | inactive |
| Cul1 | DRSC07645 | 2.73e7 | 3.21e7 | – | 1.67e7 | 1.59e7 | inactive |
| CG33178 | DRSC19950 | 4.26e7 | 3.32e7 | – | 2.09e7 | 1.39e7 | inactive |
| Lcp65Ac | DRSC11210 | 3.16e7 | 5.09e7 | – | 1.47e7 | 2.08e7 | inactive |
| CG14795 | DRSC18513 | 2.48e7 | 3.42e7 | 2 | 1.24e7 | 1.41e7 | inactive |
| CG15459 | DRSC20530 | 5.35e7 | 6.23e7 | – | 2.48e7 | 2.82e7 | inactive |
| CG15459 | DRSC21383 | 4.08e7 | 3.21e7 | – | 2.38e7 | 1.56e7 | inactive |
| Gr59a | DRSC21550 | 3.33e7 | 3.63e7 | – | 1.90e7 | 1.58e7 | inactive |
| shps | DRSC14614 | 3.60e7 | 6.87e7 | – | 2.06e7 | 2.82e7 | inactive |
| TM9SF4 | DRSC01888 | 3.82e7 | – | – | 1.83e7 | – | inactive |
| Ugt303B1 | DRSC15141 | 3.12e7 | 3.68e7 | – | 1.91e7 | 1.54e7 | inactive |
| ng1 | DRSC18802 | 3.91e7 | 5.83e7 | 2 | 1.96e7 | 2.43e7 | inactive |
| eIF2gamma + Su(var)3-9 | DRSC13081 | 2.53e7 | 2.01e7 | – | 1.28e7 | 1.07e7 | inactive |
| eIF2gamma + Su(var)3-9 | DRSC16873 | 3.44e7 | 4.69e7 | – | 1.58e7 | 2.00e7 | inactive |
| feo | DRSC19398 | 3.39e7 | 2.14e7 | – | 2.01e7 | 1.33e7 | inactive |
| mfrn | DRSC15687 | 2.84e7 | 4.05e7 | – | 1.61e7 | 1.78e7 | inactive |
| Pgam5-2 | DRSC04278 | 4.00e7 | 4.60e7 | – | 2.04e7 | 2.06e7 | inactive |
| Jhedup | DRSC07173 | 4.40e7 | 5.00e7 | – | 1.89e7 | 2.35e7 | inactive |
| Oseg4 | DRSC08548 | 3.40e7 | 2.94e7 | – | 1.52e7 | 1.39e7 | inactive |
| ppk3 | DRSC04275 | 3.50e7 | 4.77e7 | – | 1.80e7 | 2.10e7 | inactive |
| CG32086 | DRSC10586 | 3.27e7 | 4.26e7 | – | 1.57e7 | 1.92e7 | inactive |
| CG10418 | DRSC09720 | 2.39e7 | 3.58e7 | – | 1.34e7 | 1.76e7 | inactive |
| vrs | DRSC15832 | 3.96e7 | 3.10e7 | – | 1.96e7 | 1.63e7 | inactive |

6 entries from above, set out differently:
Gene | dsRNA | calcium entry signal, replicate 1 (fluorescence units) | calcium entry signal, replicate 2 (fluorescence units) | entry to resting ratio | resting calcium signal, replicate 1 (fluorescence units) | resting calcium signal, replicate 2 (fluorescence units) | outcome
Mad1 | DRSC07561 | 3.85e7 | 2.66e7 | – | 1.52e7 | 1.25e7 | inactive
aqrs | DRSC14724 | 4.04e7 | 5.84e7 | – | 2.10e7 | 2.43e7 | inactive
Acp36DE | DRSC01860 | 5.04e7 | 3.56e7 | – | 2.18e7 | 1.74e7 | inactive
ARY (retired record) | DRSC20867 | 3.65e7 | 3.76e7 | – | 1.73e7 | 1.85e7 | inactive
CG7044 | DRSC16180 | 4.67e7 | 4.21e7 | – | 4.96e7 | 1.85e7 | inactive
Dscam1 | DRSC05047 | 2.30e7 | 4.43e7 | – | 1.18e7 | 1.96e7 | inactive
